In US8361483B2, “Epinecidin-1 as a vaccine adjuvant for enhancing immune responses” (priority 2011, dated 2013):
Part of at least one peptide drawing is inferred or uncertain, most often the ends. Where no end group is shown, it is not given here.

Experiments:
[1] = test system: Japanese encephalitis virus (JEV); assay: JEV infection of BHK-21 cells with Epi-1 (prophylaxis, co-treatment, curative), cell proliferation assay; assay type: cell-based, Beijing-1 strain; details: for prevention of JEV infection: BHK-21, JEV MOI 0.1, 48 h
JEV [2] = assay: Viral challenge and Epi-1 treatment, survival of adult mice; assay type: in vivo, C3H/HeN mice
JEV envelope (E) protein = assay: Anti-JEV-E protein antibody assay (ELISA) of serum, adult mice; assay type: in vivo, C3H/HeN mice
[3] = test system: Th1 and Th2 cytokines (IL-2, IFN-γ, IL-4, IL-10); assay: Cytokine ELISA of serum, adult mice; assay type: in vivo, C3H/HeN mice; details: Epi-1 co-injected with JEV
JEV [4] = assay: Plaque reduction neutralization test (PRNT) of mouse sera; assay type: in vivo, C3H/HeN mice; details: serum day 7
JEV-responsive genes = assay: Real-time PCR of anti-viral and immune response genes in mouse brain; assay type: in vivo, C3H/HeN mice
[5] = test system: IL-6, IL-10, IL-12p70, MCP-1, TNF, IFN-γ; assay: Cytokine ELISA of proinflammatory cytokines in mouse brain; assay type: in vivo, C3H/HeN mice; details: 4 days post-treatment, JEV with Epi-1 50, 100, 200 μg/ml
JEV [6] = assay: Transmission electron microscopy of JEV mixed with Epi-1; design: species or system Japanese encephalitis virus; details: JEV mixed with 50, 100 or 200 μg/ml Epi-1, 15 min, room temperature
JEV-E protein = assay: Immunofluorescence and Western blot of JEV-E protein in mouse brain; assay type: in vivo, C3H/HeN mice

Q: Which results are given for “GFIFHIIKGLFHAGKMIHGLV [Epi-1, epinecidin-1]”?
A: drop of infection rate compared to control ([1]; co-treatment 0.5 μg/ml Epi-1 plus JEV MOI 0.1, BHK-21, 48 h): 40%; drop of infection rate compared to control ([1]; co-treatment 1 μg/ml Epi-1 plus JEV MOI 0.1, BHK-21, 48 h): 50%; prevention of JEV infection ([1]; post-treatment (curative)): failed to prevent JEV infection; prevention of JEV infection ([1]; pre-treatment (prophylactic)): failed to prevent JEV infection; survival (JEV [2]; Epi-1 alone, JEV re-challenge day 14, n=10): died only after JEV re-challenge; mice died within 1 week (JEV [2]; JEV 50x LD50 plus 50 μg/ml Epi-1 i.p., n=10): four; mice died within 1 week (JEV [2]; JEV 50x LD50 plus 100 μg/ml Epi-1 i.p., n=10): one; survival (JEV [2]; JEV 50x LD50 plus 200 μg/ml Epi-1 i.p., re-challenge day 14, 25 days, n=10): survived even after the second JEV re-challenge; anti-JEV titer (JEV envelope (E) protein; serum after JEV re-challenge (day 21), co-injected Epi-1 and JEV): further significantly increased after re-challenge; anti-JEV titer (JEV envelope (E) protein; serum day 4, co-injected Epi-1 and JEV vs JEV alone): higher anti-JEV titers than JEV alone; IgG1 antibodies (JEV-E specific) (JEV envelope (E) protein; serum, co-injection of Epi-1 with JEV): increased IgG1 antibodies; Th2 cytokine levels (IL-4 and IL-10) vs Th1 cytokine levels (IL-2 and IFN-γ) [3]: higher than Th1 cytokine levels; Neutralizing antibodies titers (JEV [4]; +JEV, Epi-1 50 μg/ml): > 1/160; Neutralizing antibodies titers (JEV [4]; +JEV, Epi-1 100 μg/ml): > 1/320; Neutralizing antibodies titers (JEV [4]; +JEV, Epi-1 200 μg/ml): > 1/1280; Neutralizing antibodies titers (JEV [4]; −JEV, Epi-1 50 μg/ml): < 1/10; Neutralizing antibodies titers (JEV [4]; −JEV, Epi-1 100 μg/ml): < 1/10; Neutralizing antibodies titers (JEV [4]; −JEV, Epi-1 200 μg/ml): < 1/10; expression levels of STAT1, STAT2, Bax, IFN-A7, IFN-β, IFN-γ, Mx-1, TLR-1, MyD88, IL-2, Atf3 (JEV-responsive genes; day 4, 200 μg/ml Epi-1 and JEV): down-regulated; expression of Bcl-2, SOCS-3, IL-4 (JEV-responsive genes; day 4, 200 μg/ml Epi-1 and JEV): upregulated; expressions of the given genes (JEV-responsive genes; day 14, Epi-1 and JEV vs Epi-1 alone): generally low over 14 days; JEV-mediated release of IL-6, IL-10, IL-12p70, MCP-1, TNF, IFN-γ [5]: suppressed; viral particles under TEM (JEV [6]): subject to lysis and destruction; difference in relative intensities of JEV-E protein vs JEV alone (JEV-E protein; Western blot densitometry, Epi-1 (200 μg) co-injected): up to 6 fold; numbers of fluorescent spots (virus particles, anti-JEV-E) (JEV-E protein; brain sections day 4, co-injected Epi-1 and JEV vs JEV alone): dramatically decreased; 52-kDa JEV-E protein in Western blot (JEV-E protein; brain total protein day 4, samples with Epi-1): barely seen
